These results are taken from paper PMC7340778.

Sequences of proteins named here, by UniProt entry; tags and fusion partners are left off. Residues count along the entry.
UniProt P19438, residues 42-201: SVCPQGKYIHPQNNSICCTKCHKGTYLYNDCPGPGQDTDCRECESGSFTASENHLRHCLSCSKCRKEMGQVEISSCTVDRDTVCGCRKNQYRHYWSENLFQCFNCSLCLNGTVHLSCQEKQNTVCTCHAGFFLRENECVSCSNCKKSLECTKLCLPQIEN

Results are given in words; binding and its absence hold for the method and conditions named. Some entries that bind do so weakly or less than the wild type. Where a sequence is shown, tags or fusion partners need not be part of it.

This experiment addresses soluble extracellular fragment of TNFR1 (sTNFR1) (human) (UniProt P19438). Description: pull-down; affinity column: sTNFR1 coupled to CNBr-Sepharose; biotinylated aAb loaded, column washed with PBS, then Tag7 in PBS added in 100-fold excess over aAb; TNFR1-bound fraction blotted with anti-Tag7 antibodies; both purified.

B1: Tag7 (PGLYRP1) (protein, UniProt O75594 22-196)
chain: QETEDPACCSPIVPRNEWKALASECAQHLSLPLRYVVVSHTAGSSCNTPASCQQQARNVQHYHMKTLGWCDVGYNFLIGEDGLVYEGRGWNFTGAHSGHLWNPMSIGISFMGNYMDRVPTPQAIRAAQGLLACGVAQGALRSNYVLKGHRDVQRTLSPGNQLYHLIQNWPHYRSP
With B1, the binding entry was “binds”.
